Reference: PubChem BioAssay AID2685 (National Center for Advancing Translational Sciences (NCATS), 2010)
The other results are listed elsewhere or left out. The main result of the screen is listed elsewhere. These columns were measured beside it and carry no call. The list favours compounds with an active or inconclusive main result. Words in brackets tell the shape of the fitted curve; partial curves, single points and poor fits give uncertain potencies.

Experiment: qHTS Assay for Lipid Storage Modulators in Drosophila S3 Cells;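 on cell number change: cells counted by Cell Tracker Red CMTPX staining in the red channel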
Settings: BODIPY lipid droplet fluorescence, 18-24 h; for cell number change: measured here: cell count max response, cells fed with added oleic acid
Summary of the method: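 Drosophila S3 cells got compounds at several concentrations plus oleic acid (400 uM solution). Laser-scanning cytometry with 488 nm excitation read lipid droplets at 500-530 nm and cells at 575-640 nm. Percent activity was relative to 20 uM Triacsin C.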

[1] = measured here: cell number channel AC50, cells fed with added oleic acid
[2] = measured here: lipid fluorescence (Fed channel) AC50, cells fed with added oleic acid

SMILES: COc1ccc(C2=NOC(C(=O)N3CCN(C(=O)c4ccco4)CC3)C2)cc1OC (configuration not stated)
- cell number change: -2.09%

SMILES: CC(=O)Oc1ccc(-c2cccc(C(=O)NCCO)c2)cc1
- AC50 [1]: 5170 nM [falling, partial curve]
- AC50 [2]: 130 nM [falling, full curve, poor fit]

SMILES: O=C(Nc1sc2c(c1C(=O)O)CCCC2)C(=O)N1CCOCC1
- AC50 [2]: 29100 nM [rising, single point]

SMILES: CCOC(=O)N1CCc2c(sc3c2c(=O)n(Cc2ccccc2)c(=O)n3CC(=O)NCCOC)C1
- cell number change: 30%
- AC50 [2]: 13 nM [rising, full curve, poor fit]

SMILES: O=C(Nc1nnc(-c2cccnc2)o1)c1cccc([N+](=O)[O-])c1
- cell number change: -12.5%
- AC50 [2]: 32600 nM [falling, single point]

SMILES: Cc1ccc(NC(=O)c2oc(=O)c3ccccc3c2-c2ccccc2)c(C)c1
- AC50 [2]: 1460 nM [rising, full curve]

SMILES: COc1cc(C(=O)Nc2ccc3ccccc3c2)cc(OC)c1OC
- cell number change: -3.51%

SMILES: O=C(CCNC(=O)OCc1ccccc1)NC1CCCCC1
- cell number change: -34.8%
- AC50 [1]: 3260 nM [falling, partial curve, poor fit]
- AC50 [2]: 146 nM [falling, full curve, poor fit]

SMILES: CCCc1ccc(C(=O)NNC(=O)c2ccc(Br)cc2)cc1
- cell number change: 16%
- AC50 [2]: 651 nM [rising, full curve]

SMILES: COc1ccc(C(=O)C(C)N(C(=O)c2ccc(Cl)cc2Cl)N2C(=O)C3C4C=CC(C4)C3C2=O)cc1 (configuration not stated)
- cell number change: -23.8%
- AC50 [2]: 29100 nM [falling, single point]

SMILES: CC(=O)O[C@]1(C(C)=O)CC[C@H]2[C@@H]3C=C(Cl)C4=CC(=O)CC[C@]4(C)[C@H]3CC[C@@]21C
- cell number change: -12.2%

SMILES: COc1ccc2[nH]c(=O)c(C(c3nnnn3C(C)(C)C)N(Cc3ccco3)CC3CCCO3)cc2c1 (configuration not stated)
- cell number change: 2.17%
- AC50 [1]: 580 nM [falling, single point]
- AC50 [2]: 580 nM [falling, single point]

SMILES: O=C(CSc1nccc(-c2cccs2)n1)Nc1cccc(Cl)c1Cl
- cell number change: -39.4%
- AC50 [2]: 6510 nM [rising, partial curve, poor fit]

SMILES: CCOC(=O)c1cncc(C#CCOC(=O)Nc2ccc(OC(F)(F)F)cc2)c1
- cell number change: 5.15%
- AC50 [2]: 2310 nM [rising, single point]

SMILES: Cc1oc2c(C)c3oc(=O)c4c(c3cc2c1C)CCC4
- cell number change: 9.84%

SMILES: CC(C)c1ccc(NC(=O)CN2C(=O)NC(Cc3c[nH]c4ccccc34)C2=O)cc1 (configuration not stated)
- cell number change: -7.16%
- AC50 [2]: 1030 nM [rising, partial curve]

SMILES: CCN(Cc1cc(=O)n2ccsc2n1)Cc1nc2cc(OC)c(OC)cc2c(=O)[nH]1
- cell number change: 24.8%
- AC50 [2]: 29100 nM [rising, single point]

SMILES: COc1ccc([C@@H]2[C@@H]3C(=O)N(C(C)(C)C)C(=O)[C@@H]3[C@]3(Cc4ccccc4)C(=O)N(c4ccc(OC)cc4)C(=O)N23)cc1
- cell number change: 18.6%
- AC50 [2]: 2310 nM [rising, single point]

SMILES: CC(C)(C)NC(=O)COC(=O)CCC(=O)c1ccc(F)cc1
- cell number change: -40.2%

SMILES: COc1ccccc1CCC(=O)N(C)CC(=O)Nc1ccc(Cl)c(C(F)(F)F)c1
- AC50 [2]: 580 nM [falling, single point]

SMILES: O=C(N1CCN(c2ccccc2F)CC1)C1(S(=O)(=O)c2ccc(Cl)cc2)CC1
- cell number change: -17.5%

SMILES: O=C(Nc1ccc(OC(F)(F)F)cc1)Nc1cccc([N+](=O)[O-])c1
- cell number change: -78.9%
- AC50 [1]: 4610 nM [falling, full curve]
- AC50 [2]: 3260 nM [falling, full curve]

SMILES: CCOc1ccc(NC(=O)C2CSC(c3ccncc3)=N2)cc1 (configuration not stated)
- cell number change: 11.1%
- AC50 [2]: 92 nM [rising, full curve, poor fit]

SMILES: Cc1nn(Cc2ccc(Cl)cc2)c(Cl)c1/C=N/NC(=O)CNc1ccccc1F
- cell number change: -5.07%

SMILES: O=C(CNCc1ccccc1Cl)NCc1ccco1
- AC50 [2]: 2590 nM [falling, single point]

SMILES: CCCCNC(=O)COC(=O)c1cc(C)nc2ccccc12
- cell number change: -28.2%
- AC50 [2]: 82 nM [falling, full curve, poor fit]

SMILES: CC1N(C(=O)N2CCOCC2)CCN1S(=O)(=O)c1ccc(Cl)cc1 (configuration not stated)
- cell number change: -3.95%

SMILES: CCN(CC(=O)Nc1ccc(NC(C)=O)cc1)C(=O)/C=C/c1cn(-c2ccccc2)nc1-c1cccs1
- AC50 [1]: 2060 nM [rising, partial curve]

SMILES: CCOC(=O)c1cnn(-c2ccccc2)c1NC(=O)CN1CCCCC1
- cell number change: -7.35%

SMILES: CCNC(=S)N/N=C/c1cccc(C)c1
- cell number change: 0.0804%
- AC50 [2]: 2590 nM [rising, partial curve]

SMILES: Cc1cccc(C)c1NC(=O)CNC(=O)c1ccc(NS(=O)(=O)c2ccc3[nH]c(=O)[nH]c3c2)cc1
- cell number change: 102%

SMILES: Cc1cccc(Nc2nc(N)c([N+](=O)[O-])c(N3CCCC(C)C3)n2)c1 (configuration not stated)
- cell number change: -38%
- AC50 [1]: 11600 nM [falling, partial curve]

SMILES: Cc1cccc(N2C(=O)C3C4C=CC(CC4)C3C2=O)c1 (configuration not stated)
- cell number change: -6.82%
- AC50 [2]: 23100 nM [rising, single point]

SMILES: COc1cccc(C2C(C(=O)c3cc4cccc(OC)c4o3)=C(O)C(=O)N2c2cc(C)on2)c1OC (configuration not stated)
- AC50 [2]: 6510 nM [rising, single point]

SMILES: CCOC(=O)C1=C(C)N(C2CCCCC2)C(=O)C1
- cell number change: -2.71%
- AC50 [2]: 5170 nM [falling, single point]

SMILES: O=C(Nc1nnc(SCc2ccccc2F)s1)C1=COCCO1
- cell number change: -11.9%
- AC50 [2]: 29100 nM [falling, single point]

SMILES: CCn1cc(C(=O)N2CCCC2)c(=O)c2cc(S(=O)(=O)N3CC(C)CC(C)C3)ccc21 (configuration not stated)
- cell number change: 10.9%
- AC50 [2]: 103 nM [rising, full curve, poor fit]

SMILES: Cc1ccc(C)c(S(=O)(=O)NCCCN2CCOCC2)c1
- cell number change: 26.7%
- AC50 [2]: 5800 nM [rising, single point]

SMILES: COCCSc1nnc(NC(=O)C2CCN(C(=O)c3ccco3)CC2)s1
- cell number change: -9.21%
- AC50 [2]: 5620 nM [falling, single point]

SMILES: CCCc1nc(NC2CCCCC2)c(C#N)c2c1COC(C)(C)C2
- cell number change: 0.678%
- AC50 [2]: 18400 nM [rising, single point]
